According to PMC3854564:
Read-outs that look alike come from different tables or passages of the source. These are yes or no findings as the source states them, for the method shown. Binding seen in cells or lysates may run through a third protein. Some entries that bind do so weakly or less than the wild type. Values belong to the molecule of their own block, whether it stands above or below them.

Chains of the proteins cited; added tags and fusions are not shown.
UniProt Q08857: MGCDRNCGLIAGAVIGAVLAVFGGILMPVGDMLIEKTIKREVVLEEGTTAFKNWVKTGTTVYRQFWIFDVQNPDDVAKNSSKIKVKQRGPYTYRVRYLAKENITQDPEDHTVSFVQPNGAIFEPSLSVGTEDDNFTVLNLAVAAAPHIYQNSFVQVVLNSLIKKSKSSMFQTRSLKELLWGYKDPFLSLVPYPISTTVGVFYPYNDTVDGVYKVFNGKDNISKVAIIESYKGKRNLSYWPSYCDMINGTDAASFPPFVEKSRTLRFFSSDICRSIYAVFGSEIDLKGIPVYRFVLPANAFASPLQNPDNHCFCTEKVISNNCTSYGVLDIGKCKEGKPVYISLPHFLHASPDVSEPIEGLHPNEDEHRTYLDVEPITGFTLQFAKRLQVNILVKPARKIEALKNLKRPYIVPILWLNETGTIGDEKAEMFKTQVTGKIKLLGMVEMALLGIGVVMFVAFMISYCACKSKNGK
UniProt Q62035: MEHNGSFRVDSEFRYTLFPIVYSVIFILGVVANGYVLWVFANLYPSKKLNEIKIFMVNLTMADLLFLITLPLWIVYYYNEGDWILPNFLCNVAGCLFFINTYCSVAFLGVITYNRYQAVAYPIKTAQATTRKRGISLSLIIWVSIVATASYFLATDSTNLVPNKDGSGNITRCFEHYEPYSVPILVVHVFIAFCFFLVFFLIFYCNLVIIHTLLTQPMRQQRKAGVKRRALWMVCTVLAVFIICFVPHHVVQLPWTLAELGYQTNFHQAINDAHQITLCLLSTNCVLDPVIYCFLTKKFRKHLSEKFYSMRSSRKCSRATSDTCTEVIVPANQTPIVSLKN

Key:
Assay in all cases: co-IP; bone marrow-derived macrophages resting, treated with PAF (10^-7 M) or with apoptotic thymocytes (10 per macrophage) for 20 min; lysed on ice in HEPES buffer with 1 mM CaCl2, 1 mM MgCl2, 1% Triton X-100; lysates incubated overnight at 4°C with rabbit anti-PAFR or mouse IgA anti-CD36, protein A- or protein G-Sepharose; immunoblot for PAFR, CD36 or flotillin-1
[1] = molecular target: CD36 (mouse (endogenous in bone marrow-derived macrophages)) (UniProt Q08857)
[2] = molecular target: CD36 (mouse (endogenous in bone marrow-derived macrophages)) (UniProt Q08857); remark: listed apart in the source
[3] = molecular target: platelet-activating factor receptor (mouse (endogenous in bone marrow-derived macrophages)) (UniProt Q62035)

binding [1]: binds
Molecule: platelet-activating factor receptor (from UniProt Q62035 1-341)

binding [2]: binds | binding [3]: binds
B1: flotillin-1 (protein, UniProt O08917 1-428)
chain: MFFTCGPNEAMVVSGFCRSPPVMVAGGRVFVLPCIQQIQRISLNTLTLNVKSEKVYTRHGVPISVTGIAQVKIQGQNKEMLAAACQMFLGKTEAEIAHIALETLEGHQRAIMAHMTVEEIYKDRQKFSEQVFKVASSDLVNMGISVVSYTLKDIHDDQDYLHSLGKARTAQVQKDARIGEAEAKRDAGIREAKAKQEKVSAQCLSEIEMAKAQRDYELKKATYDIEVNTRRAQADLAYQLQVAKTKQQIEEQRVQVQVVERAQQVAVQEQEIARREKELEARVRKPAEAERYRLERLAEAEKAQLIMQAEAEAESVRMRGEAEAFAIGARARAEAEQMAKKAEAFQMYQEAAQLDMLLEKLPQVAEEISGPLTSANKITLVSSGSGTMGAAKVTGEVLDILSRLPESVERLTGVSISQVNHNKPLRTA
